# In PubChem BioAssay AID504834 (National Center for Advancing Translational Sciences (NCATS), 2011):
# Among all 320,000 compounds or so, about 22,000 (6.9%) were called active. Inconclusive means that the source gave no clear call. Such entries were picked first, then a sample of the others. The call rests on the fitted dose curve; in most records, active means well fitted inhibition curve with a large enough effect; inconclusive means small, poorly fitted or top-dose-only effect, or another doubt; inactive means no such curve, though single readings can be large or run the other way. Potencies of inconclusive entries are doubtful fits and often do not repeat.
# Experiment: Primary qHTS for delayed death inhibitors of the malarial parasite plastid, 96 hour incubation
# Conditions: P. falciparum luciferase reporter growth; series mostly up to 28.7 µM; activity change, negative = inhibition: at the top concentration
# Method in brief: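 Two parasite generations (96 h, 37 C, 5% CO2) of compound exposure in infected erythrocytes (0.05% parasitemia, 2% hematocrit). Luciferase-reporter P. falciparum; decreased luminescence indicates inhibited growth, aimed at apicoplast-acting delayed death.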
# On the % scale 0 is the no-effect control and ±100 the full control effect; potency means the concentration at half of the fitted maximal effect.
SMILES,Potency,"activity change, negative = inhibition"
CCOC(=O)N1CCC(=NNC(=O)Cn2ccc(C(F)(F)F)n2)CC1,"inconclusive: 1.31 µM [inhibitor, partial curve, poor fit]",
CC(C)(C)OC(=O)NNC(=O)NC12CC3CC(CC(C3)C1)C2,"inconclusive: 0.0329 µM [inhibitor, full curve, poor fit]",
COc1ccc(OCC(=O)Nc2cc(OC)ccc2N2CCCCC2)cc1,,inactive: 41.7%
Cc1ccc(-c2nc(N)sc2C)cc1,,inactive: 57.5%
COc1ccccc1N1CCN(C(=O)Cn2nc3n(C)c4ccccc4n3c(=O)c2=O)CC1,"inconclusive: 14.7 µM [inhibitor, single point]",
CCN(CC)C(=O)CSc1ncnc2c(-c3cccs3)nsc12,"inconclusive: 18.5 µM [inhibitor, single point]",
COc1cc(C(C)=O)ccc1Oc1ccc(S(=O)(=O)N2CCOCC2)cn1,,inactive: -26.6%
CCOc1ccc(Cn2nnc(C(=O)Nc3cc(C)cc(C)c3)c2N)cc1,"inconclusive: 13.1 µM [inhibitor, single point]",
Cc1ccccc1NC(=O)Cc1ccccc1,"inconclusive: 18.5 µM [inhibitor, single point]",
Cc1cc(C)cc(NC(=O)CSc2nnc(CNC(=O)c3ccco3)o2)c1,"inconclusive: 14.7 µM [inhibitor, single point]",
CCOC(=O)c1ccc(NC(=S)N2CCSC2c2ccc(Cl)cc2)cc1 (configuration not stated),"inconclusive: 13.1 µM [inhibitor, single point]",
C[C@@H]1CC[C@]2(C(=O)O)CC[C@]3(C)C(=CCC4[C@]56CC[C@@](O)(OC5)C(C)(C)C6CC[C@]43C)C2[C@H]1C (some centres not stated),,inactive: -1.45%
Cc1cccc(N2C(=O)N3[C@H](c4ccc(F)cc4)[C@@H]4C(=O)N(C5CCCCC5)C(=O)[C@@H]4[C@]3(Cc3ccc(Cl)cc3)C2=O)c1,"inconclusive: 18.5 µM [inhibitor, single point]",
COc1ccc(C(=O)NCC(=O)NCC2(N(C)C)CCCCC2)cc1OC,"inconclusive: 9.28 µM [inhibitor, single point]",
C/C(=N\NC(=O)CNC(=O)c1cccc(F)c1)c1ccc2ccccc2c1,,inactive: 33.7%
COc1ccc(NC(=O)CSc2ccccn2)cc1,"inconclusive: 5.22 µM [inhibitor, partial curve, poor fit]",
COc1ccc(N/N=C(/Oc2ccc([N+](=O)[O-])cc2)C(C)=O)cc1,active: 11.7 µM,
O=C1CSC(c2ccccc2)N1CCc1ccccc1 (configuration not stated),,inactive: 235%
CN(C)C(CNc1ccc([N+](=O)[O-])cc1C#N)c1ccccc1 (configuration not stated),,inactive: 11.9%
O=C(CSc1nnc(Cc2ccccc2)o1)N1CCCC1,,inactive: -1.42%
C#CCN(C(=O)c1cc(COc2cccc(C(F)(F)F)c2)on1)C1CCCCC1,"inconclusive: 13.1 µM [inhibitor, single point]",
CCN(CC)S(=O)(=O)c1ccc(OC)c(NC(=O)c2cc(C)on2)c1,,inactive: 6.11%
CCC(C)c1ccc(C2C3=C(Nc4nc(N)[nH]c(=O)c42)c2ccccc2C3=O)cc1 (configuration not stated),"inconclusive: 13.1 µM [inhibitor, single point]",
Cc1ccc(-n2[nH]c(C)c(C=Nc3ccc(S(=O)(=O)N4CCOCC4)cc3)c2=O)c(C)c1,"inconclusive: 11.7 µM [inhibitor, single point]",

SMILES,Potency,"activity change, negative = inhibition"
COc1cc(-c2nn3c(-c4ccco4)nnc3s2)cc(OC)c1OC,"inconclusive: 5.86 µM [inhibitor, partial curve, poor fit]",
Cc1ccc(NC(=O)C2C3CCCCC32)cc1[N+](=O)[O-] (configuration not stated),"inconclusive: 11.7 µM [inhibitor, single point]",
O=C(NC1CCN(C(=S)Nc2ccccc2)CC1)C1CCCCC1,"inconclusive: 16.5 µM [inhibitor, partial curve, poor fit]",
CCCCCN(C(=O)NC(=O)Nc1ccc(C)cc1C)S(C)(=O)=O,,inactive: 10.7%
CCN1C=C(Cc2ccccc2C)C2=C(C1)C(c1ccccc1C)C(C#N)=C(N)O2 (configuration not stated),active: 2.94 µM,
CC(=O)c1sc(N/N=C\c2ccc(Br)cc2)nc1C,"inconclusive: 18.5 µM [inhibitor, single point]",
Cc1ccc(C(=O)NC(C)c2ccc(-n3ccnc3)cc2)cc1S(=O)(=O)N1CCOCC1 (configuration not stated),"inconclusive: 8.28 µM [inhibitor, partial curve, poor fit]",
O=C(Nc1cccc(-c2cccc(Cl)c2)c1)C1CCN(Cc2ccc(CO)o2)CC1,"inconclusive: 18.5 µM [inhibitor, single point]",
CCOCCCNC(=S)N1CCN(c2nc(-c3ccccc3)cs2)CC1,,inactive: -23.6%
Oc1ccccc1/C=N/N1CCN(c2ccccn2)CC1,,inactive: 42.3%
Cc1cc(C(C)(C)C)cc(C)c1C(=O)O,,inactive: 30.5%
CC(C)CN1C(=O)c2ccc(C(=O)Nc3ccccc3C(=O)O)cc2C1=O,,inactive: -15.2%
CC(=O)Nc1ccccc1-c1nc2ccc(C(=O)N3CCN(c4cc(C)ccc4C)CC3)cc2[nH]c1=O,"inconclusive: 18.5 µM [inhibitor, single point]",
Cc1cc(OC(C)C(=O)N2C[C@H]3C[C@@H](C2)c2cccc(=O)n2C3)c2c(C)c(C)c(=O)oc2c1 (some centres not stated),"inconclusive: 11.7 µM [inhibitor, single point]",
CCn1nnnc1NC(=O)c1cc(Cl)c(OC)c(Cl)c1,"inconclusive: 18.5 µM [inhibitor, single point]",
NC(=O)CSc1nc2ccccc2n1-c1ccccc1,active: 9.28 µM,
CC(NC(=O)c1cc2ccccc2oc1=O)c1ccccc1 (configuration not stated),active: 11.7 µM,
CNc1sc(C(=O)c2cccs2)c(N)c1-c1nc2ccccc2s1,,inactive: -13.8%
CCCCN(CC)C(=O)Cn1ncc2c1-c1cc(C)ccc1OC2,"inconclusive: 18.5 µM [inhibitor, single point]",
CCOC(=O)c1ccc(NC=C2C(=O)OC3(CCCCC3)OC2=O)cc1,,inactive: 38.4%
COc1ccc(OC)c(/C=C/C(=O)NCCc2nc3ccccc3[nH]2)c1,"inconclusive: 18.5 µM [inhibitor, single point]",
CCNC(=O)NC(=O)C(C)OC(=O)C(C)(C)Oc1ccc(Cl)cc1 (configuration not stated),,inactive: 24.1%
COc1ccc(CCNC(=O)CSc2ccc(-c3cccs3)nn2)cc1OC,,inactive: -25.1%
Cc1ccc(S(=O)(=O)N2CCOCC2)cc1NC(=O)CSCc1c(C)noc1C,,inactive: -6.95%

# In the list so far, these contain an aryl thioether with sulfur outside any ring.
SMILES,Potency,"activity change, negative = inhibition"
CCN(CC)C(=O)CSc1ncnc2c(-c3cccs3)nsc12,"inconclusive: 18.5 µM [inhibitor, single point]",
Cc1cc(C)cc(NC(=O)CSc2nnc(CNC(=O)c3ccco3)o2)c1,"inconclusive: 14.7 µM [inhibitor, single point]",
COc1ccc(NC(=O)CSc2ccccn2)cc1,"inconclusive: 5.22 µM [inhibitor, partial curve, poor fit]",
O=C(CSc1nnc(Cc2ccccc2)o1)N1CCCC1,,inactive: -1.42%
NC(=O)CSc1nc2ccccc2n1-c1ccccc1,active: 9.28 µM,
COc1ccc(CCNC(=O)CSc2ccc(-c3cccs3)nn2)cc1OC,,inactive: -25.1%

# Further entries

SMILES,Potency,"activity change, negative = inhibition"
Cc1nc(-c2ccc(S(=O)(=O)Nc3cc(S(=O)(=O)N(C)C)ccc3C)s2)cs1,,inactive: 42.7%
CC1CCCCC1NC(=O)NC(=O)COC(=O)c1ccc(OC(F)F)cc1 (configuration not stated),,inactive: 2.17%
CCOc1ccc(/C(C)=N\NC(=O)Cc2ccccc2)cc1,"inconclusive: 0.828 µM [inhibitor, full curve, poor fit]",
Cc1nnsc1C(=O)NC1CCCc2c1cnn2-c1ccc(C(C)(C)C)cc1 (configuration not stated),"inconclusive: 18.5 µM [inhibitor, single point]",
COc1ccc(-n2nnnc2SCC(=O)NCCc2ccc(OC)c(OC)c2)cc1,active: 5.22 µM,
CCOC(=O)N1CCN(C(=O)CSCC(=O)Nc2nc(-c3ccc(Cl)s3)cs2)CC1,"inconclusive: 13.1 µM [inhibitor, single point]",
COc1cccc(C(=O)C2CCCN(Cc3ccc4nonc4c3)C2)c1 (configuration not stated),"inconclusive: 2.33 µM [inhibitor, full curve, poor fit]",
S=c1[nH]nc(C2COc3ccccc3O2)o1 (configuration not stated),"inconclusive: 4.15 µM [inhibitor, single point]",
COc1cccc(CNC(=O)c2cc(C)nc3ccccc23)c1,,inactive: 2.24%
CN(C)C(=O)/C(=C\c1cccc(Oc2ccccc2)c1)NC(=O)c1ccccc1,"inconclusive: 2.62 µM [inhibitor, single point]",
CCOc1ccc(-c2nc(CN3CCCC(C(=O)N4CCOCC4)C3)c(C)o2)cc1 (configuration not stated),,inactive: 92.1%
Cc1ccc(C)c(N(CC(=O)NC2CCCCC2)C(=O)CNC(=O)c2ccco2)c1,,inactive: -0.839%
CC(=O)Nc1cccc(Nc2nc(-c3cccs3)nc3ccccc23)c1,active: 9.28 µM,
COCCNC(=O)c1ccc(N2CC3CC(C2)c2cccc(=O)n2C3)c([N+](=O)[O-])c1 (configuration not stated),"inconclusive: 2.62 µM [inhibitor, single point]",
COc1cc(OC)cc(N2C(=O)CC(N3CCC(C(=O)N4CCCCC4)CC3)C2=O)c1 (configuration not stated),active: 14.7 µM,
COc1ccc(C(=O)C2CCCN(Cc3ccon3)C2)cc1OC (configuration not stated),"inconclusive: 16.5 µM [inhibitor, single point]",
O=[N+]([O-])c1cccc(NN=Nc2ccccc2)c1,"inconclusive: 4.15 µM [inhibitor, partial curve, poor fit]",
CCOC(=O)c1c(C)[nH]c(C(=O)Nc2ccc(C)c(Cl)c2)c1C,"inconclusive: 18.5 µM [inhibitor, single point]",
Cc1ccc(C)c(N2CCN(CCCNC(=O)Cn3cc4c(n3)CCC(C)C4)CC2)c1 (configuration not stated),"inconclusive: 3.7 µM [inhibitor, full curve, poor fit]",
CCC(C)C(=O)Nc1nc(C)c(-c2csc(Nc3cc(Cl)ccc3OC)n2)s1 (configuration not stated),active: 14.7 µM,
O=C(CSc1nnc(-c2cccnc2)n1-c1ccccc1)Nc1ccccn1,active: 10.4 µM,
Cc1ccc(S(=O)(=O)NCC(=O)OCC(=O)Nc2cccc(S(=O)(=O)NC3=NCCCCC3)c2)cc1,"inconclusive: 16.5 µM [inhibitor, single point]",
CC1(C)C2CCC1(CS(=O)(=O)NCCc1c[nH]c3ccccc13)C(=O)C2 (configuration not stated),,inactive: -23.1%
Cc1ccc(Nc2nnc(SCc3cc(=O)n4cc(C)ccc4n3)s2)cc1,"inconclusive: 11.7 µM [inhibitor, single point]",
